Publication PMC7819943, “Rice protein-binding microarrays: a tool to detect cis-acting elements near promoter regions in rice”
Some of the results follow.

Sequences of proteins named here, by UniProt entry; tags and fusion partners are left off.
UniProt Q0JBA9, entry or part of it: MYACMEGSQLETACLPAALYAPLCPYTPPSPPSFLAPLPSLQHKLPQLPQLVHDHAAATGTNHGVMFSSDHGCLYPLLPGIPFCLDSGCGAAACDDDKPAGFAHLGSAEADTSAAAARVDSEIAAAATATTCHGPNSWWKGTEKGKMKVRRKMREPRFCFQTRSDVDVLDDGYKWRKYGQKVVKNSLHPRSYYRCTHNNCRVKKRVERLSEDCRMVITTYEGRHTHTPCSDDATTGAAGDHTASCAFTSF

Target: OsWRKY34 (Oryza sativa, UniProt Q0JBA9 1-250)
Assay: protein-binding microarray (RPBM); PBS, 2% BSA, 51.3 ng/ul salmon testes DNA, 50 uM zinc acetate, 200 nM TF, 25 C, 1 h; high values mean tight binding
Settings: protein: recombinant; tags: N-terminal polyhistidine and DsRed monomer fusion (pET32a); label: CyDye5-dUTP incorporated in the synthesized complementary strand; 3' TTTTT single-stranded linker to array surface; dsDNA, one strand shown
Method in brief: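 A custom Agilent array was converted to double-stranded form by primer extension with Cy5-dUTP and blocked with 2% BSA. Protein at 200 nM in PBS with 2% BSA, salmon testes DNA and 50 µM zinc acetate was applied for 1 h at 25 °C, followed by washing. The proteins were polyhistidine–DsRed N-terminal fusions of transcription factors, expressed in E. coli BL21-CodonPlus and Ni–NTA-purified. The binding signal is per-feature fluorescence intensity (arbitrary units) from an Axon 4000B scanner.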

In order of rising binding signal:
1. TCCTCTTCCTCATCCTCGACCGTGCCGCCGCCCATGACCCCGGAGTCACCTAGTGCAG  8040 fluorescence intensity (a.u.)
2. TTTCTTCCGCTCCACGCCGCCCTCCGCCGCCGCCGCCATGCGGAGTCACCTAGTGCAG  8040 fluorescence intensity (a.u.)
3. CTTCATTGATGTTGTCAGTGTTTACTAAGCACTTATTTTTCGGAGTCACCTAGTGCAG  8070 fluorescence intensity (a.u.)
4. AAAACATTTCTCTATTCGTTTCATTCTTCAAAGATGAGAGCGGAGTCACCTAGTGCAG  8100 fluorescence intensity (a.u.)
5. ATGCTACTTATCTCACATGATGTCTTGGGTATTGTGTAGACGGAGTCACCTAGTGCAG  8100 fluorescence intensity (a.u.)
6. TTGATGACAAGTTGAGGGTCCTTTAGTGTACTTTTTCTTACGGAGTCACCTAGTGCAG  8120 fluorescence intensity (a.u.)
7. TCATAGTCGGGCGTGGGAGGTTTTTTTTTTTGAGTCGGACCGGAGTCACCTAGTGCAG  8130 fluorescence intensity (a.u.)
8. CAACATCACGGCCACGAGGTCGCCCCGTTCTTCCATGTTCCGGAGTCACCTAGTGCAG  8140 fluorescence intensity (a.u.)
9. TACTATTATATTCTATGCTCTGGATCTACACATATGTGCTCGGAGTCACCTAGTGCAG  8170 fluorescence intensity (a.u.)
10. CGCTCGCCCTTCTCCGCTTCGCGTGTTGTACTGTTCTCCCCGGAGTCACCTAGTGCAG  8210 fluorescence intensity (a.u.)
11. ATTACCGTTATTTATGCATCATTCACAATTTTTCCGTGATCGGAGTCACCTAGTGCAG  8260 fluorescence intensity (a.u.)
12. AATTTCGGAAGGGTTGGTTTAGGCAGTAATATTCTCCATTCGGAGTCACCTAGTGCAG  8280 fluorescence intensity (a.u.)
13. CATTCCAGCGCACCGACCGCAACGAAATGTTTCTGCGTTCCGGAGTCACCTAGTGCAG  8340 fluorescence intensity (a.u.)
14. GGTTTGGTGTTTGACATGTCACAGGGCGTTGCCGCCATTACGGAGTCACCTAGTGCAG  8400 fluorescence intensity (a.u.)
15. GGGAACTTCGCCCGCCACCTGCGCCGATCTCCATCAATCTCGGAGTCACCTAGTGCAG  8540 fluorescence intensity (a.u.)
16. CGTTGAAAGCATCCGTCCGTAGCCCCGGTCGCCTTCCACCCGGAGTCACCTAGTGCAG  8560 fluorescence intensity (a.u.)
17. CACCCGAATTTTTGGGACTTCTTTTCCAACATGTGTCATACGGAGTCACCTAGTGCAG  8570 fluorescence intensity (a.u.)
18. CGAAGTGGGTCTCCTATCTGTGGATCTGGCGTGCTTAAAACGGAGTCACCTAGTGCAG  8650 fluorescence intensity (a.u.)
19. TTACTCAAGCAAACCCTCTAGAGTCATTTTCTTTATTGCACGGAGTCACCTAGTGCAG  8650 fluorescence intensity (a.u.)
20. ATCTTCCATCTCTCTTTCCCTAGGACGCGCAGCGCTGTTTCGGAGTCACCTAGTGCAG  8680 fluorescence intensity (a.u.)
21. ATTAGTATACTTTCTCTCTTTGCTTTTTTTTTTCCTTTCTCGGAGTCACCTAGTGCAG  8710 fluorescence intensity (a.u.)
22. GTTGAGGTTTCCAACTCATTTTTCTCGTTTTACACATGCACGGAGTCACCTAGTGCAG  8770 fluorescence intensity (a.u.)
23. TTTTGGTATACTGCACTTTTGAATTTTACAACCACATCTCCGGAGTCACCTAGTGCAG  8800 fluorescence intensity (a.u.)
24. AAATCAATATTTTCTGGTTGTTCTTCCACCATTTTACTATCGGAGTCACCTAGTGCAG  8900 fluorescence intensity (a.u.)
25. CCTGCATGGCTTGCTGGCTCGTGTCCGCGTCGTACGACGACGGAGTCACCTAGTGCAG  8920 fluorescence intensity (a.u.)
26. CATTTTCACCTAAATTGCCATTGTTTTGTGAGTTTCTTGCCGGAGTCACCTAGTGCAG  8960 fluorescence intensity (a.u.)
27. AGATTGGGGCTGGCAGTAGAGCGACGGGTTTCGCGGCCGTCGGAGTCACCTAGTGCAG  8960 fluorescence intensity (a.u.)
28. ATGGATGGTATTGCCTTGAGCTTTAAAAACACAACCTTTCCGGAGTCACCTAGTGCAG  9240 fluorescence intensity (a.u.)
29. CCCCATCTTTTAGCCCAATAACAACGGGGTCATCTTTTTTCGGAGTCACCTAGTGCAG  9260 fluorescence intensity (a.u.)
30. CTCACCGATCCCATCTCAATTCTCACCGCCTCACCGCGCCCGGAGTCACCTAGTGCAG  9270 fluorescence intensity (a.u.)
31. CTCCTTACGCCGGCACGAATCGCCTCCCTGATGTTGACCCCGGAGTCACCTAGTGCAG  9340 fluorescence intensity (a.u.)
32. AAATCACAATTTTCTCTCGTCTACTCTTGCATACACAACACGGAGTCACCTAGTGCAG  9460 fluorescence intensity (a.u.)
33. CGACGACTTATCACGATGCAGCAAGTGACGTTGACCACGCCGGAGTCACCTAGTGCAG  9580 fluorescence intensity (a.u.)
34. TGTGGTCCAATCAAACTGCCATTCATATGTTTTTCCTTTACGGAGTCACCTAGTGCAG  9590 fluorescence intensity (a.u.)
35. GTCTGGGAGCAATAGGTCGCAATCATACATGCTTTATCTTCGGAGTCACCTAGTGCAG  9770 fluorescence intensity (a.u.)
36. TTCGTACACTTTCTCCAGCCACAGCGCCGCCGCAATTCGCCGGAGTCACCTAGTGCAG  9910 fluorescence intensity (a.u.)
37. GGACCATACTGTTTTCTTTCTTTTTTTTTCTCTCTCTCTCCGGAGTCACCTAGTGCAG  10200 fluorescence intensity (a.u.)
38. TCATACATCCCACGTACGTGCATTCCACCAACAACCCTGACGGAGTCACCTAGTGCAG  10300 fluorescence intensity (a.u.)
39. TGCGCTCATGGCCATCCATTTTCTTCTTCTTCTTTTTTTTCGGAGTCACCTAGTGCAG  10300 fluorescence intensity (a.u.)
40. CGGGTGGAGACTATTTTAATCTTATTATTATTCAGTGTGACGGAGTCACCTAGTGCAG  10400 fluorescence intensity (a.u.)
41. ATACTGACCCAGCAAGTTTGACCACGGTTCACTTATCACGCGGAGTCACCTAGTGCAG  10400 fluorescence intensity (a.u.)
42. CGTTTTCTTTTTTCCATGATAAATAATGTGTTTCTACTAACGGAGTCACCTAGTGCAG  10600 fluorescence intensity (a.u.)
43. CATTTCGAGCCTTACTGTTTTTATTTAGTTTTCGAGAAAACGGAGTCACCTAGTGCAG  10800 fluorescence intensity (a.u.)
44. CTGCCACTCCCGCCATCTCTCCGTTGTCCTCTCCACCGACCGGAGTCACCTAGTGCAG  10800 fluorescence intensity (a.u.)
45. AAGTCCGCCGCCATTTTCTTCTCGCCCCATCCCTGCGCCCCGGAGTCACCTAGTGCAG  10900 fluorescence intensity (a.u.)
46. TGCATTAGTCTATCTAGGTTGGTTGTTTGCATTAGTCTATCGGAGTCACCTAGTGCAG  11000 fluorescence intensity (a.u.)
47. GAAGTATGTTGTTTGCTTGTGTTTGTGATGCTATATTGTTCGGAGTCACCTAGTGCAG  11100 fluorescence intensity (a.u.)
48. GGTTTCAAGAAAAGGAAAAGAAAAACTAAACGTAGTATAACGGAGTCACCTAGTGCAG  11300 fluorescence intensity (a.u.)
49. TAATTCTCTATTAGTCAAGTACTGTCCTAGCTCTAGTTTTCGGAGTCACCTAGTGCAG  11400 fluorescence intensity (a.u.)
50. TCACCATAGTTCTGCTACCTGCTCGTCTCACTCTAGTTGCCGGAGTCACCTAGTGCAG  11400 fluorescence intensity (a.u.)
51. CTCCTGCGCACGTTTTTTTGTCTGATGCTGCAGTTTTATACGGAGTCACCTAGTGCAG  12200 fluorescence intensity (a.u.)
52. CGTTGTTGTTTACTCATTGTTTTGTTACCATACATGTCTTCGGAGTCACCTAGTGCAG  12700 fluorescence intensity (a.u.)
53. CGCATCTCGTTTTCTCTTTATTTGTTTCTTCTTTCGCTTTCGGAGTCACCTAGTGCAG  13800 fluorescence intensity (a.u.)
54. TCCCCACCTGTCAGTACTTATGTTTTGACTTTTTGACCCACGGAGTCACCTAGTGCAG  14300 fluorescence intensity (a.u.)
